Test results published in patent US20180021429A1, “ANTICANCER AGENTS OR ANTIMETASTATIC AGENTS USING FSTL1 AND COMBINATION DRUG THEREOF” (PHARMA FOODS INTERNATIONAL CO., LTD., priority 2015, published 2018).
No constants are given. Whether binding was seen depends on the method and setting. Some entries that bind do so weakly or less than the wild type.

Amino acid sequences for entries named in this document (tags omitted). A change or cut given only in a name is not applied to a line headed by its entry.
UniProt Q12841: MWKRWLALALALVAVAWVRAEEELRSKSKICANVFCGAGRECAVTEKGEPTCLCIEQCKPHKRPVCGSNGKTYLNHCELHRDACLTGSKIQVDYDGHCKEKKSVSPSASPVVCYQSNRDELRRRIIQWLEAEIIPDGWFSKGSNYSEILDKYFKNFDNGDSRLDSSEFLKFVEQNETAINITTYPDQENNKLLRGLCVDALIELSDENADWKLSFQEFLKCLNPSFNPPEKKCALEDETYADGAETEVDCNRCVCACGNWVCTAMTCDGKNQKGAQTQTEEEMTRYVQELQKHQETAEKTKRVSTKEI

biological target: human FSTL1 (construct not stated) (human) (UniProt Q12841); experiment: SPR (Biacore T-200), captured antibody

| binding | Binder |
| --- | --- |
| binds | anti-FSTL1 antibody clone #7-34 (chicken-mouse chimeric antibody) (antibody, mouse IgG1, kappa, V domains shown) VH: AVTLDESGGGLQTPGGGLSLVCKASGFTFSSVTMQWVRQAPGKGLEWVASICSGSSTYYGPAVKGRATISRDNGQNTVRLQLNNLRAEDTATYYCAKIVGRGRWSCTSAAYNIDAWGHGTEVIVSS VL: ASTQPSSVSANPGETVKITCSGGGNNYGWYQQKSPGSAPVTVIYYNNNRPSNIPSRFSGSTSGSTSTLTITGVQAEDEAVYYCGSYEGSTDSGIFGAGTTLTVLG |
| binds | anti-FSTL1 antibody clone #33 (chicken-mouse chimeric antibody) (antibody, mouse IgG1, kappa, V domains shown) VH: AVTLDESGGGLQTPGGGLSLVCKASGFTFSSFNMNWVRQAPGKGLEYVAEISGTGSSTYYGSAVKGRATISRDNGQSTVRLQLNNLRAEDTATYFCARGDGAYSIDAWGHGTEVIVSS VL: ASTQPSSVSANPGETVEITCSGDSSYYGWFQQKSPGSAPVTVIYDNTNRPSDIPSRFSGSKSGSTATLTITGVRAEDEAVYYCGGYDSSTYDGIFGAGTTLTVLG |

Continued, binder first:

| Binder | binding |
| --- | --- |
| anti-FSTL1 antibody clone #10 (chicken-mouse chimeric antibody) (antibody, mouse IgG1, kappa, V domains shown) VH: AVTLDESGGGLQTPGGALSLVCKASGFFFFRIYDMGWVRQAPGKGLEWVAGIDDYGRYTGYGSAVKGRATISRDNGQSTVRLQLNNLRAEDTGTYYCARGAGTGCNSAGCGAYAGSIDAWGHGTEVIVSS VL: ASTQPSSVSANPGETVKLTCSGGGSRYGWYQQKSPGSAPVTVIYYNDKRPSDIPSRFSGSKSGSTATLTITGVQAEDEAVYFCGGYDGSRDAGIFGAGTTLTVLG | binds |
| anti-FSTL1 antibody clone #6-55 (chicken-mouse chimeric antibody) (antibody, mouse IgG1, kappa, V domains shown) VH: AVTLDESGGGLQTPGGALSLVCKGSGFTFTSVTMQWVRQAPGKGLEWVASVCSGSSTYYAPAVKGRATISRDNGQSTVRLQLSNLRPEDTGTYYCAKIAGRARWSCTSAAYNIDAWGHGTEVIVSS VL: ASTQPSSVSAIPGETVKITCSGGGNNYGWYQQRSPGSAPVTVIYYNDNRPSNIPSRFSGSTSGSTSTLTITGVQADDEAIYYCGSWDSNTDSGIFGAGTTLTVLG | binds |
| anti-FSTL1 antibody clone #13 (chicken-mouse chimeric antibody) (antibody, mouse IgG1, kappa, V domains shown) VH: AVTLDESGGGLQTPGGGLSLVCKASGFTFSSVTMQWVRQAPGKGLEWVASICSGSSTYYGPAVKGRATISRDNGQNTVRLQLNNLRAEDTATYYCAKIVGRGRWSCTSAAYNIDAWGHGTEVIVSS VL: ASTQPSSVSANPGETVKITCSGGGNNYGWYQQKSPGSAPVTVIYNNNNRPSNIPSRFSGSKSGSTNTLTITGVQAEDEAVYYCGSYDSSSDSGIFGAGTTLTVLG | binds |
